Data as given in PubChem BioAssay AID1259424 (University of Nebraska Medical Center, 2018).

Purpose: 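Seek colon cancer survival genes behaving like KSR1, using a six-gene signature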 (primary screen)
Cells: human HCT116 colon cancer cells
Reagents: siRNA pool against human genes, 50 nM
Measured: 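Log2 levels of six mRNAs (branched-DNA multiplex), adjusted by two reference genes and the non-targeting median, then scored against the average KSR1 knockdown pattern as Pearson r and euclidean distance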
Reading the numbers: mean correlation with KSR1 profile and KSR1 correlation: higher = expression change more like KSR1 knockdown; mean distance from KSR1 profile: higher = expression change less like KSR1 knockdown
This is a random part of about 14,000 reagents. 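Higher correlation or smaller distance means closer resemblance to KSR1 loss; control wells, including KSR1 knockdowns, recur on many plates.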 No sequences are given here. Not stated in the record: the time to read-out.

target gene | PubChem SID | mean correlation with KSR1 profile | mean distance from KSR1 profile | KSR1 correlation, replicate 1 | KSR1 correlation, replicate 2 | KSR1 correlation, replicate 3
CHCHD6 | SID364003927 | 0.321 | 1.46 | 0.164 | 0.177 | 0.628
ABCB1 | SID363992212 | 0.371 | 2.26 | 0.275 | 0.402 | 0.12
ITM2C | SID364003500 | -0.597 | 3.05 | -0.707 | -0.513 | -0.644
DCHS1 | SID363994804 | 0.445 | 1.36 | 0.478 | 0.523 | 0.199
TPRXL | SID364005626 | 0.267 | 1.49 | 0.454 | -0.292 | -0.0949
MTHFD1L | SID363999496 | 0.297 | 1.9 | 0.549 | 0.112 | 0.179
SSTR4 | SID363992349 | 0.731 | 1.1 | 0.756 | 0.835 | 0.724
TRAPPC2 | SID363998935 | 0.657 | 1.71 | 0.498 | 0.716 | 0.738
COA3 | SID363998554 | -0.135 | 3.6 | -0.158 | -0.457 | -0.256
NARF | SID363998246 | 0.107 | 2.96 | -0.113 | -0.413 | -0.0369
CLASRP | SID363997787 | 0.174 | 2.38 | 0.195 | 0.107 | 0.135
GTF3C2 | SID363992779 | -0.274 | 1.99 | -0.506 | -0.515 | -0.355
PLSCR1 | SID364002013 | -0.142 | 2.62 | -0.284 | -0.272 | 0.0332
FAM110A | SID364003611 | 0.478 | 2.52 | 0.516 | 0.371 | 0.327
HIVEP1 | SID363993320 | -0.264 | 2.65 | -0.268 | -0.328 | -0.146

5 successive entries already listed:
target gene | PubChem SID | mean correlation with KSR1 profile | mean distance from KSR1 profile | KSR1 correlation, replicate 1 | KSR1 correlation, replicate 2 | KSR1 correlation, replicate 3
DCHS1 | SID363994804 | 0.445 | 1.36 | 0.478 | 0.523 | 0.199
TPRXL | SID364005626 | 0.267 | 1.49 | 0.454 | -0.292 | -0.0949
MTHFD1L | SID363999496 | 0.297 | 1.9 | 0.549 | 0.112 | 0.179
SSTR4 | SID363992349 | 0.731 | 1.1 | 0.756 | 0.835 | 0.724
TRAPPC2 | SID363998935 | 0.657 | 1.71 | 0.498 | 0.716 | 0.738

The results go on:
target gene | PubChem SID | mean correlation with KSR1 profile | mean distance from KSR1 profile | KSR1 correlation, replicate 1 | KSR1 correlation, replicate 2 | KSR1 correlation, replicate 3
TAAR6 | SID364004866 | 0.71 | 1.53 | 0.706 | 0.805 | 0.634
CLDN8 | SID364004996 | 0.551 | 1.45 | 0.652 | 0.568 | 0.585
ZNF253 | SID364001974 | -0.548 | 2.27 | -0.55 | -0.592 | -0.664
GNB3 | SID363993282 | 0.068 | 3.01 | 0.0761 | 0.275 | -0.214
ESR1 | SID363991461 | -0.134 | 3.04 | 0.4 | -0.329 | -0.222
NFIA | SID363996490 | -0.00622 | 3.08 | 0.0861 | 0.167 | -0.533
SLIT2 | SID363995743 | -0.263 | 2.34 | -0.108 | -0.258 | -0.435
GBA3 | SID364001923 | -0.714 | 2.89 | -0.725 | -0.591 | -0.688
PSIP1 | SID364002040 | -0.638 | 2.24 | -0.477 | -0.808 | -0.398
PAG1 | SID364001073 | 0.341 | 2.24 | 0.562 | 0.213 | 0.258
PPM1D | SID363994698 | 0.0222 | 1.88 | -0.0225 | -0.0507 | 0.0755
CDH7 | SID363995347 | -0.126 | 2.26 | 0.077 | 0.0485 | -0.383
NUCB2 | SID363995952 | 0.134 | 1.68 | 0.0604 | 0.284 | -0.444
GMPPA | SID363998445 | 0.807 | 1.98 | 0.696 | 0.745 | 0.629
ERGIC1 | SID364001712 | -0.233 | 2.07 | -0.299 | -0.598 | -0.304
HEXA | SID363991843 | -0.0277 | 2.69 | 0.15 | -0.271 | -0.0469
PAX7 | SID363993753 | 0.102 | 2.79 | 0.43 | 0.367 | 0.192
FARSA | SID363995443 | -0.388 | 3.85 | -0.328 | -0.275 | -0.458
CCDC74A | SID364004577 | 0.564 | 2.88 | 0.684 | 0.393 | 0.397
